{"source": "PubChem BioAssay AID504444", "about": "(National Center for Advancing Translational Sciences (NCATS), 2011)", "note": "Out of some 360,000 compounds screened, about 7,500 (2.1%) were called active. Inconclusive results, whose numbers are uncertain, are shown with a selection of clear calls. The call rests on the fitted dose curve; in most records, active means well fitted inhibition curve with a large enough effect; inconclusive means small, poorly fitted or top-dose-only effect, or effect the other way; inactive means flat fitted curve, though single readings scatter. Where the call is inconclusive, the potency comes from a doubtful curve fit. On the % scale 0 is the no-effect control and ±100 the full control effect; potency means the concentration at half of the fitted maximal effect."}
{"assay": "Nrf2 qHTS screen for inhibitors; further: nearly all actives have a fitted effect of over 60% in size", "settings": "A549 ARE-Fluc reporter, luciferase luminescence, 18-24 h; activity change, negative = inhibition: at 46 µM (top of the series)", "in_short": "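In this cell-based qHTS, ARE-driven firefly luciferase in A549 cells reports Nrf2 activity; the luminescent signal after BugLite lysis is the measured value, with a prior CellTiter-Fluor read for cell health.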"}
{"compound": "CCCCCn1c(N2CCCC2)nc2c1c(=O)n(C)c(=O)n2C", "Potency": "inconclusive: 23.1 µM [falling, single point]"}
{"compound": "COc1ccccc1N(CC(=O)NC1CCCC1)C(=O)c1oc(C(C)(C)C)cc1C", "Potency": "inconclusive: 4.61 µM [falling, full curve, poor fit]"}
{"compound": "Cc1nc2cc(NS(=O)(=O)c3cccc4cccnc34)ccc2s1", "Potency": "active: 25.9 µM"}
{"compound": "CCOC(=O)/C=c1\\s/c(=C\\c2ccc(C#N)cc2)c(=O)n1CC(=O)Nc1cccc(C)c1C", "Potency": "inconclusive: 2.06 µM [falling, full curve, poor fit]"}
{"compound": "C/C(=C\\c1ccccc1)C1NC(=O)c2c(sc3c2CCCC3)N1", "note": "(stereo unspecified)", "Potency": "inconclusive: 18.4 µM [activator, partial curve]"}
{"compound": "Cc1cc(O)cc(C)c1Cl", "Potency": "inconclusive: 29.1 µM [falling, single point]"}
{"compound": "O=C(CN1CCN(S(=O)(=O)c2ccc(Cl)cc2)CC1)Nc1ccc2c(c1)CCC2", "Potency": "inconclusive: 20.6 µM [falling, partial curve, poor fit]"}
{"compound": "CC1CCN(C(=O)c2[nH]cnc2C(=O)NCc2ccc(CNC(=O)OC(C)(C)C)cc2)CC1", "Potency": "inconclusive: 20.6 µM [falling, single point]"}
{"compound": "CC1(c2ccc(NC(=O)c3ccccc3F)cc2)CC1(Cl)Cl", "note": "(stereo unspecified)", "Potency": "inconclusive: 5.8 µM [activator, partial curve]"}
{"compound": "COC(=O)c1ccc(C(=O)OC)c(NC(=S)N2CCCC(C)C2)c1", "note": "(stereo unspecified)", "activity change, negative = inhibition": "inactive: 9.12%"}
{"compound": "COc1ccc(C2=Nn3c(nnc3-c3ccc(OC)cc3OC)SC2)c(OC)c1", "activity change, negative = inhibition": "inactive: 8.15%"}
{"compound": "CCOC(=O)c1cnn(-c2nc(-c3ccc(F)cc3)cs2)c1C(F)(F)F", "Potency": "inconclusive: 5.17 µM [falling, partial curve, poor fit]"}
{"compound": "O=S(=O)(c1ccc(Cl)cc1)c1nc(-c2cccs2)oc1N1CCCCC1", "Potency": "inconclusive: 29.1 µM [falling, single point]"}
{"compound": "Cn1nc(C(F)(F)F)c(/C=N/OCc2c(Cl)cccc2Cl)c1Cl", "Potency": "inconclusive: 7.31 µM [falling, partial curve, poor fit]"}
{"compound": "COc1ccc(N=C2SCC(=O)N2Cc2ccccc2)cc1", "Potency": "inconclusive: 29.1 µM [falling, partial curve, poor fit]"}
{"compound": "C[C@H]1CN(CCc2ccccc2)C(=O)[C@@H]1CC(=O)NCc1ccccc1", "Potency": "inconclusive: 29.1 µM [activator, single point]"}
{"compound": "O=C(O)c1ccc(N/N=C/c2ccc3c(c2)OCO3)cc1", "Potency": "inconclusive: 6.51 µM [activator, partial curve]"}
{"compound": "CNc1nc(Sc2cccc(C(F)(F)F)c2)cc(C(F)(F)F)n1", "Potency": "inconclusive: 3.66 µM [falling, full curve, poor fit]"}
{"compound": "COc1cccc(NC(=O)CCN2C(=O)c3ccccc3Sc3ncccc32)c1", "Potency": "inconclusive: 29.1 µM [activator, single point]"}
{"compound": "Cc1ccccc1-n1c(SCc2c(C)noc2C)nnc1-c1c[nH]c2ccccc12", "Potency": "inconclusive: 18.4 µM [falling, single point]"}
{"compound": "O=[N+]([O-])c1cccc(/C=C/c2ccccn2)c1", "Potency": "inconclusive: 29.1 µM [falling, single point]"}
{"compound": "O=C(CCc1nc(-c2ccccc2)no1)NC1CCCCCC1", "Potency": "inconclusive: 16.4 µM [falling, partial curve, poor fit]"}
{"compound": "CCOC(=O)c1sc2ccccc2c1S(=O)(=O)NCc1ccccc1OC", "Potency": "inconclusive: 16.4 µM [falling, partial curve]"}
{"compound": "COc1ccccc1N1CCN(C2CCCN(C(=O)CCc3ccccn3)C2)CC1", "note": "(stereo unspecified)", "activity change, negative = inhibition": "inactive: -1.07%"}
{"compound": "CC(=O)c1ccc(N/C=C/C(=O)c2ccc(Br)cc2)cc1", "Potency": "inconclusive: 11.6 µM [activator, partial curve]"}
{"compound": "CCC1CN(C(=O)N2CCC(C(=O)NCCc3ccc(OC)cc3OC)CC2)c2cc(C)ccc2O1", "note": "(stereo unspecified)", "activity change, negative = inhibition": "inactive: -16.1%"}
{"compound": "Cc1nc(-c2ccc([N+](=O)[O-])cc2)nc2[nH]ccc(=O)c12", "Potency": "inconclusive: 7.31 µM [activator, partial curve]"}
{"compound": "N#C/C(=C/c1cccs1)c1ccccn1", "Potency": "inconclusive: 7.31 µM [activator, partial curve]"}
{"compound": "Cc1cccc(C)c1-n1ncc(C(=O)NCCCN2CCC(C)CC2)c1C1CCN(C(=O)OC(C)(C)C)CC1", "Potency": "inconclusive: 16.4 µM [activator, single point]"}
{"compound": "Cc1cc(C)c2c(=O)c3c(oc2c1)C(=O)N(CCO)C3c1cccc(O)c1", "note": "(stereo unspecified)", "Potency": "inconclusive: 13 µM [falling, partial curve, poor fit]"}
{"compound": "O=C(CN1CCN(c2ccc(O)cc2)CC1)Nc1cc(S(=O)(=O)N2CCOCC2)ccc1Cl", "Potency": "inconclusive: 16.4 µM [falling, single point]"}
{"compound": "Cc1ccc(-n2nc3c4c(cccc4c2=O)-c2ccccc2-3)cc1", "Potency": "inconclusive: 16.4 µM [falling, single point]"}
{"compound": "NC(=O)N/N=C/c1c(Sc2nnnn2-c2ccccc2)nc2ccccn2c1=O", "Potency": "inconclusive: 7.31 µM [falling, partial curve, poor fit]"}
{"compound": "C=CC(=O)NN(C)c1ncc(C(F)(F)F)cc1Cl", "Potency": "inconclusive: 16.4 µM [falling, single point]"}
{"compound": "CCOC(=O)c1c(NC(=O)CN2C(=O)NC3(CCCCC3)C2=O)sc(C)c1-c1ccc(C)cc1", "Potency": "inconclusive: 29.1 µM [falling, single point]"}
{"compound": "CCOC(=O)c1cnc2c(ccc3ccccc32)c1Nc1ccc(C(C)=O)cc1", "activity change, negative = inhibition": "inactive: 21.2%"}
{"compound": "COc1cccc(CSc2nc3ccncc3n2CC(=O)Nc2ccc(OC)c(OC)c2OC)c1", "activity change, negative = inhibition": "inactive: 26.2%"}
{"compound": "O=C(Nc1ccc(N2CCCC2)c(Cl)c1)c1ccc(Br)o1", "Potency": "inconclusive: 29.1 µM [activator, single point]"}
{"compound": "CC(=O)N1CCC(N(Cc2ccc(C)o2)C(=O)Nc2cccc(C(F)(F)F)c2)CC1", "activity change, negative = inhibition": "inactive: 21.4%"}
{"compound": "CC(C)(C)c1ccc(S(=O)(=O)/N=C2\\C=C(NS(=O)(=O)c3ccccc3)C(=O)c3ccccc32)cc1", "activity change, negative = inhibition": "inactive: 4.28%"}
{"compound": "C=CCn1c(C)cc(C(=O)CSc2nnc(Cc3ccccc3)o2)c1C", "Potency": "inconclusive: 25.9 µM [falling, single point]"}
